Holding throughout (assay): protein microarray (ProtoArray v5.0), streptavidin-Alexa Fluor 647
Details in all cases: 3'-biotin; 20 mM Tris (pH 7.5), 5 mM MgCl2, 100 mM KCl, 0.1% Tween-20, A/T-rich and random oligonucleotide blockers; temperature not stated; high values mean tight binding

In test [1] the test system is Peptidase inhibitor 16 (human).
For test [2], the system named is Peptidyl-prolyl cis-trans isomerase-like 3 (human).
Test [3] concerns Peptidyl-tRNA hydrolase 2, mitochondrial (human).
The test system of test [4] is Phosphatase and actin regulator 4 (human).
Test [5] concerns Phosphatidylinositol-3,4,5-trisphosphate 3-phosphatase and dual-specificity protein phosphatase PTEN (human).
The subject of test [6] is Phosphoacetylglucosamine mutase (human).
Test [7] concerns Phosphoglucomutase-2 (human).
In test [8] the test system is Phosphoglycerate mutase 1 (human).
Test [9] deals with Phospholipase DDHD2 (human).
The test system of test [10] is Phospholysine phosphohistidine inorganic pyrophosphate phosphatase (human).

Some of the results follow.

As for “GGTGACAGGGGTATGGGGAGGGG [G4-2 biotinylated (Ct1)]”, the binding signal in [1] is -0.384 z-score; in test [2], -0.387 z-score; in test [3] it was 3.46 z-score; in [4], -0.367 z-score; in test [5] it was -0.388 z-score; in test [6], -0.394 z-score. Moreover, the binding signal in test [7] was -0.397 z-score; in [8] it was -0.378 z-score; in [9] it was -0.391 z-score; in test [10], -0.392 z-score.

For the origin of these results see PMC5996148.
